From patent US8044022B2, “Hyaluronic acid binding peptides enhance host defense against pathogenic bacteria” (priority 2005, dated 2011)
Not every detail of the peptide structures is certain; ends, links or a residue may be inferred. Some of these results come from one statement about several compounds together. Residues, ends and D or L forms follow the SMILES beside them.

What was measured:
GAS [1] = assay: Bacterial translocation through polarized keratinocyte cultures (Transwell); format: cell-based, Group A Streptococcus; details: two hours after addition of GAS; for decrease in the numbers of translocating GAS bacteria: vs PBS or SCRM
Protocol: Cell cultures: For the preparation of in vitro keratinocyte cultures, human primary OKP7 cells were derived from the oropharynx. Keratinocytes were seeded at 5×10^5 cells per well onto polycarbonate Transwell membrane supports (12 well plates, 3.0 μm pore size; Costar) or tissue culture treated plastic ware and cultured for 5-10 days at 37° C. with 5% humidified CO2 in cSFM medium with daily medium changes. Once confluent, the calcium concentration of the cSFM was increased to 1.2 mM and cells were cultured for 2 more days, before the integrity of the monolayer was assessed by measuring permeability to sodium fluorescein, and in some experiments, by measuring transepithelial electrical resistance.
Infection procedures: Keratinocyte layer cultures in Transwell inserts were inoculated in the upper chamber with GAS, S. equi, S. uberis, and P. multocida at a multiplicity of infection (MOI) of 1 bacterium per keratinocyte in the presence or absence of HABP01 or SCRM. Infected cultures were incubated at 37° C. with 5% CO2 for the desired time. In translocation experiments, Transwell inserts containing the keratinocytes were moved to new wells containing fresh medium every 2 hours to prevent overgrowth of bacteria that had translocated through the keratinocytes layer to the lower chamber. Bacterial translocation was quantified by culturing medium from the lower chamber at 2-hour intervals.
Bacterial translocation studies were performed to assess the impact of HABP01 on bacterial paracellular translocation through polarized keratinocyte cultures.
Incubation of GAS in the presence of HABP33, HABP35 and HABP42, also delayed GAS translocation. At two hours after the addition of GAS to the keratinocytes, approximately 530 CFU of GAS were detected in the lower level in cultures treated with PBS or SCRM peptide.

[2] = Surface plasmon resonance (Biacore T-100) binding of peptides to immobilized biotin-labeled hyaluronic acid; set-up: species or system rooster
Protocol: Surface plasmon resonance spectroscopy (SPR) studies were performed on a Biacore T-100 to quantitate the binding of peptides to hyaluronic acid (HA). Biotin-labeled hyaluronic acid (Sigma B1557, hyaluron sodium salt from rooster comb with >97% purity, average approximately 850 kDd, 98% labeled) was immobilized on one of the four flow cells of a streptavidin-coated series S sensor chip SA. […] Peptides were then injected across the surface and the degree of binding interaction is measured in response units (RU).
The average net binding for HABP35 to HA was 399±77 RU or significant binding. The other HA binding peptides also had positive RU values.

[3] = test system: Wild Type GAS (HA encapsulated); assay: Fluorometry binding of FITC-conjugated peptide to encapsulated GAS; set-up: species or system Group A Streptococcus; details: HABP35 also confocal microscopy, data not shown
Protocol: (§1) Bacterial strains: GAS strain 950771 is a moderately encapsulated M3 clinical isolate from a child with post-varicella necrotizing fasciitis and sepsis, and an isogenic capsule deficient mutant, 188, derived from 950771. GAS were grown in Todd-Hewitt broth (Difco) to mid-exponential phase OD650 of 0.15 at 37° C. for all experiments. Commercially available trypticase-soy agar medium supplemented with 5% vol/vol sheep blood (BAP)(PML Microbiologicals, British Columbia, Canada) were used for all plate cultures. S. equi s(ATCC 53185) and P. multocida (ATCC 11039) were purchased from ATCC and cultured as recommended. Briefly, S. equi was cultured in Todd-Hewitt broth and S. uberis and P. multocida were cultured in Brain heart infusion (Difco) to OD 650 of 0.15 at 37° C. Quantitative cultures were performed in parallel with each experiment to verify the multiplicity of infection (MOI) of the inoculum.
(§2) Binding of HABP to HA and HA-encapsulated bacteria: To assess whether HABP are able to associate specifically with the GAS capsule, bacteria were cultured to mid-log phase, for maximal HA capsule expression, and incubated with either 10 μg/ml of FITC-conjugated HABP01 or SCRM, with purified HA at 1 mg/ml, as a positive control, or an isogenic mutant strain of GAS deficient in HA capsule, as a negative control. A GAS-specific antibody was used to control for the number of bacteria per well.

Acapsular GAS = assay: Fluorometry binding of FITC-conjugated peptide to capsule-deficient GAS; set-up: species or system Group A Streptococcus; details: HABP35 also confocal microscopy, data not shown
Protocol: as §1, §2

S. aureus PS80 = assay: Modified NCCLS macrodilution broth method, antimicrobial activity; format: cell-based, Staphylococcus aureus; details: 1, 10 and 100 ug/mL; quantitative cultures at 4, 8, 24 h; vs controls without HABPs
Protocol: The antimicrobial activity of HABP35 and HABP53 was determined using a modified National Committee for Clinical Laboratory Standards (NCCLS) macrodilution broth method. S. aureus PS80 was grown overnight on tryptic soy agar plates containing 5% sheep blood. Colonies were suspended in sterile saline and dilutions made to achieve a final concentration of 5×10^5 CFU/ml in each tube containing 5 ml of Mueller-Hinton and BP35 or 53. The HABPs were tested at 1, 10, and 100 ug/mL concentrations. Once inoculated, the tubes were incubated in ambient air at 37° C. and bacterial concentration determined at 4, 8, and 24 hours. Modification of testing parameters included the 10 fold dilution of the HABPs and the determination of bacterial counts at 4, 8 and 24 hours rather than the visual determination of growth or inhibition.

GAS [4] = assay: Opsonophagocytic assay with human neutrophils; format: cell-based, Group A Streptococcus
Protocol: Encapsulated GAS are resistant to killing by neutrophils in opsonophagocytic assays in the absence of antibodies that bind the bacterial surface. HABPs binding to the bacterial surface may facilitate neutrophil cytotoxicity. Opsonophagocytic assays were performed wherein GAS were incubated with 50 μg/ml of SCRM, HABP01 or HABP35 and mixed with human neutrophils in medium containing 10% absorbed human serum. Aliquots (25 μl) for quantitative culture were withdrawn immediately after mixing neutrophil with GAS and after 2 hr incubation at 37° C. The log increase or decrease in CFU's was calculated. After 2 hours of incubation, there was about a 1.5 log increase in CFU's for GAS treated with PBS or SCRM.

GAS [5] = assay: GAS growth in culture with peptide (quantitative cultures, optical density); format: cell-based, Group A Streptococcus; details: up to 50 μg/ml; 2, 4, 6 and 24 hours
GAS [6] = assay: Mouse soft tissue invasive infection model; format: in vivo, CBA/J mice; details: single dose, inoculated with GAS under the skin
Protocol: Mouse soft tissue invasive infection model: Female 4-6-week-old CBA/J mice (Jackson Laboratory, […].) were inoculated with GAS. Briefly, mice were anesthetized and the hair was shaved off the right flank. Approximately 1.5×10^5 cfu of GAS from an early log-phase broth culture were suspended in 50 μl of sterile PBS or HABP and inoculated just under the surface of the skin with a 27-guage needle. The animals were observed twice daily for 3-5 days. Serial tail vein bleeds were performed daily and 50 μl of blood was inoculated on BAP for enumeration of viable bacterial CFU and incubated at 37° C. for 24 hours. Animals surviving the experiment or appearing moribund at any time were euthanized and the spleen removed using aseptic technique. The spleen was homogenized in 1 ml of THB and 100 μl of homogenate plated on BAP. In some experiments animals were euthanized at various time points during infection and tissue sections from the inoculation site were prepared for histopathological examination.
HABP-treated mice repeatedly indicated a 24-hour to 48-hour delay in dissemination of bacteria from the inoculation site compared to controls. […] The delayed dissemination correlated with a reduced mortality 24 hours after infection, but once dissemination occurred, HABP-treated mice died rapidly. Histopathologic analysis of the infection site indicated typical lateral GAS dissemination. […]

S. aureus strain PS80 = assay: Mouse model of S. aureus surgical wound infection; format: in vivo, C57BL6 mice
Protocol: Bacterial strains. S. aureus strain PS80 (serotype 8) was obtained from the American Type Culture collection (#27700) and is a potent inducer of intraabdominal abscess formation. S. aureus COL is a methicillin resistant strain that produces a serotype 5 capsule. Staphylococci were cultivated for 24 h at 37° C. on Columbia agar (Difco Laboratories, Detroit, Mich.) supplemented with 2% NaCl.
Mouse model of S. aureus wound infection. Mice (C57BL6, male, 6-8 wk old) were obtained from Jackson Laboratories (Bar Harbor, Me.). Groups of mice (N=4/group/experiment) were anesthetized with 100 mg/kg ketamine and 10 mg/kg xylazine, their right thighs were shaved, and the surgical area was disinfected with iodine and 70% ethanol. An incision was made in the skin to expose the thigh muscle, and a 1-cm incision was made with a scalpel into the thigh muscle to the depth of the bone. The muscle was then closed with one 4-0 silk suture, and 10 μl of a S. aureus suspension ranging in dose from 10^2 to 10^4 CFU was introduced into the incision under the suture. The skin was closed with four additional Prolene sutures. The mice were euthanized at 3 days post-surgery. The wounded muscle tissue was excised, weighed (˜0.08 g), and homogenized in 1 ml of tryptic soy broth. Serial dilutions of the homogenates were plated in duplicate and results were expressed as CFU/g tissue. Peptides were administered to animals in two ways. For most experiments, HABPs were solubilized in PBS and administered with a pipet into the wound in a 10 μl volume following challenge with bacteria. A 100 μg dose was used for most experiments. For therapeutic studies, peptide was administered via a 1 ml tuberculin syringe fitted with a 25 gauge needle in a 0.25 ml volume injected into the thigh muscle containing the wound distal from the incision site.
Gross pathology and histologic analysis of host response. […] Histological examination of these wounds confirmed these findings. Muscle tissue was harvested from mice at designated intervals post-surgery, fixed in 10% buffered formalin, and mounted in paraffin; 5 to 6-μm sections were cut and stained with hematoxylin and eosin for microscopic examination. […] The cellular infiltrate was primarily comprised of PMNs and fibrin.
Statistical analyses. All animal experiments were performed at least two times and the data pooled. Comparison of S. aureus CFU/g tissue was made by the Welch modification of the unpaired Student t test (InStat, GraphPad Software, San Diego, Calif.).

MRSA strain Col = assay: Mouse model of wound infection caused by MRSA; format: in vivo, C57BL6 mice; details: 100 μg into incision at time of challenge with 10^2 CFU
S. aureus = assay: Bacterial clumping on addition of peptide to culture; format: cell-based, Staphylococcus aureus; details: peptide added to cultures
S. pyogenes = assay: as above; format: cell-based, Streptococcus pyogenes; details: peptide added to cultures
[7] = 100 μg, 10^2 CFU S. aureus, vs PBS

Molecule: STMMSRSHKTRSHHV [HABP01]
- decrease in the numbers of translocating GAS bacteria (GAS [1]): 75-85%

Molecule: STMMSRSHKTRSHHV (all d isomers) (all D-amino acids) [HABP42]
- decrease in the numbers of translocating GAS bacteria (GAS [1]): 75-85%

Molecule: CC[C@H](C)[C@H](NC(=O)[C@H](CCCCN)NC(=O)[C@H](CCC(N)=O)NC(=O)[C@H](CCCCN)NC(=O)[C@@H](N)CC(C)C)C(=O)N[C@@H](CCCCN)C(=O)N[C@@H](Cc1c[nH]cn1)C(=O)N[C@H](C(=O)N[C@H](C(=O)N[C@@H](CCCCN)C(=O)N[C@@H](CC(C)C)C(=O)N[C@@H](CCCCN)C(=O)N[C@H](C(=O)N[C@H](C(=O)N[C@H](C(=O)N[C@@H](CCCCN)C(=O)N[C@@H](CC(C)C)C(=O)N[C@@H](CCCNC(=N)N)C(=O)N[C@@H](CO)C(=O)N[C@@H](CCC(N)=O)C(=O)N[C@@H](CC(C)C)C(=O)N[C@H](C(=O)N[C@@H](CCCCN)C(=O)N[C@@H](CCCNC(=N)N)C(=O)N[C@@H](CCCCN)C(=O)N[C@@H](CCC(N)=O)C(=O)N[C@@H](CC(N)=O)C(N)=O)C(C)C)C(C)C)C(C)C)C(C)C)C(C)C)C(C)C [HABP35] (H-LKQKIKHVVKLKVVVKLRSQLVKRKQN-NH2)
- average net binding to HA ([2]; SPR, biotin-HA immobilized on streptavidin chip): 399±77 RU
- net binding to HA after addition of unlabeled HA (competitive inhibition) ([2]; unlabeled HA added to peptide prior to injection): −316 RU
- binding to encapsulated GAS (in words) [3]: specific binding
- binding to unencapsulated GAS (in words) (Acapsular GAS): no binding
- growth of S. aureus (S. aureus PS80): not inhibited
- CFU's at 2 hours (GAS [4]; 50 μg/ml): no CFU's detected
- log reduction in bacterial numbers at 2 hours (GAS [4]; 5 or 10 μg/ml): > 2 log
- growth of GAS cells in culture with peptide (GAS [5]): capable of growth
- translocation of GAS across the keratinocyte layer (in words) (GAS [1]): completely inhibited
- protection from bacteremia (GAS [6]): completely protected
- reduction of bacterial burden, dose response (S. aureus strain PS80; 10 μg dose at time of challenge with 10^2 CFU): activity waned
- bacterial counts in the wound vs PBS (S. aureus strain PS80; 100 μg injected into thigh muscle outside the incision, t=0 h): significant decrease in bacterial counts
- bacterial counts in the wound vs PBS (S. aureus strain PS80; 100 μg injected into thigh muscle, t=6 h): did not result in reduction in bacterial counts
- bacterial burden in the wound vs PBS (S. aureus strain PS80; 100 μg injected into thigh muscle, two hours following challenge): significant reduction in bacterial burden
- bacterial burden at the wound site compared with PBS (S. aureus strain PS80; 100 μg into wound at time of challenge with 10^2 CFU, 3 days later): significant decrease
- PMN infiltration and fibrin deposition, histological examination (S. aureus strain PS80; [7]): significantly fewer PMNs
- inflammation, gross pathologic examination (S. aureus strain PS80; [7]): much less inflammation
- bacterial counts in wounds compared with PBS (S. aureus strain PS80; inoculum of 10^4 CFU): did not have this effect
- reduction of bacterial burden in the wound compared with PBS (MRSA strain Col): approximately 2 logs
- bacterial clumping (S. aureus): bacterial clumping is observed
- bacterial clumping (S. pyogenes): bacterial clumping is observed
